The list shows only some results of the screen, not a fair sample: it gathers some chemical classes. Not every dose and run of a compound is shown. T/C: endpoint of the treated group in % of that of the vehicle group. Some entries give survivors of the animals treated and no T/C: the source files T/C as zero there, which appears to mark a toxic dose or a test without result, not a measured value. Some survivor counts are full or nearly so, which does not show that the dose was tolerated: survival well below the control is almost never listed, so the zero probably covers shortened survival too. Survivors were counted at the toxicity check, usually on the fifth day, unless a day is given; later deaths do not show. Schedules are NCI's codes, read here as Q, the interval in days (D) or hours (H), X, the number of doses. Some schedule codes hold Z or #, which are not explained here. Where survival is the endpoint, this PubChem deposit counts one and a half times the control or more as active, and values a quarter to a half above the control carry no call in these data; other NCI protocols may use other cut-offs. Some entries were tested several times; the values are given in rising order. Some T/C values carry the count of animals alive at the toxicity check (mostly the fifth day); without a count or a note in brackets, all were alive then.
Tested on: L1210 leukemia ip in BDF1 mice, survival T/C
Test: NCI In Vivo Anticancer Drug Screen. Data for tumor model L1210 Leukemia (intraperitoneal) in B6D2F1 (BDF1) mice
Conditions: T/C endpoint: mean survival time, vehicle: saline, higher T/C = longer survival
[1] = dose: 160.0 mg/kg/injection, schedule: Q01DX001 (ip)
[2] = dose: 160.0 mg/kg/injection, schedule: Q01DX Z (oral)
[3] = dose: 280.0 mg/kg/injection, schedule: Q01DX001 (ip)

## OC(CNCCCl)C(O)C(O)C(O)CNCCCl (configuration not stated)
dose: 80.0 mg/kg/injection, schedule: Q01DX001 (oral)
  T/C: 100 % of control
dose: 80.0 mg/kg/injection, schedule: Q01DX009 (ip)
  T/C: 90 % of control
dose: 80.0 mg/kg/injection, schedule: Q01DX009 (oral)
  T/C: 109 % of control
dose: 80.0 mg/kg/injection, schedule: Q01DX Z (oral)
  T/C: 105 and 117 % of control
dose: 80.0 mg/kg/injection, schedule: Q03HX008 (ip)
  T/C: 132 % of control
dose: 80.0 mg/kg/injection, schedule: Q03HX024 (ip)
  T/C: 160 % of control
dose: 80.0 mg/kg/injection, schedule: Q04DX003 (ip)
  T/C: 150 % of control
dose: 80.0 mg/kg/injection, schedule: Q## X002 (ip)
  T/C: 170 % of control
dose: 80.0 mg/kg/injection, schedule: Q## X003 (ip)
  T/C: 167 % of control
dose: 80.0 mg/kg/injection, schedule: Q## X008 (ip)
  T/C: 138 % of control
dose: 80.0 mg/kg/injection, schedule: Q## X016 (ip)
  T/C: 140 % of control
dose: 80.0 mg/kg/injection, schedule: Q## X024 (ip)
  T/C: 167 % of control
dose: 90.0 mg/kg/injection, schedule: Q01DX006 (iv)
  survivor count: 6 of 6
dose: 90.0 mg/kg/injection, schedule: Q01DX Z (im)
  survivor count: 6 of 6
dose: 90.0 mg/kg/injection, schedule: Q01DX Z (ip)
  survivor count: 5 of 6
dose: 90.0 mg/kg/injection, schedule: Q01DX Z (sc)
  survivor count: 6 of 6
dose: 100.0 mg/kg/injection, schedule: Q01DX Z (ip)
  survivor count: 4 of 6
dose: 120.0 mg/kg/injection, schedule: Q01DX001 (ip), evaluated on day 60
  T/C: 130 % of control
dose: 120.0 mg/kg/injection, schedule: Q01DX001 (ip), run until all animals had died
  T/C: 138 % of control
dose: 120.0 mg/kg/injection, schedule: Q01DX Z (oral)
  T/C: 105 % of control
dose: 120.0 mg/kg/injection, schedule: Q03DX Z (ip)
  survivor count: 6 of 6
dose: 120.0 mg/kg/injection, schedule: Q03HX008 (ip)
  T/C: 141 % of control
dose: 120.0 mg/kg/injection, schedule: Q04DX003 (ip)
  T/C: 121 % of control
dose: 135.0 mg/kg/injection, schedule: Q01DX006 (iv)
  survivor count: 3 of 6
dose: 135.0 mg/kg/injection, schedule: Q01DX Z (im)
  survivor count: 1 of 6
dose: 135.0 mg/kg/injection, schedule: Q01DX Z (ip)
  survivor count: 4 of 6
dose: 135.0 mg/kg/injection, schedule: Q01DX Z (sc)
  survivor count: 3 of 6
dose: 140.0 mg/kg/injection, schedule: Q01DX001 (ip)
  T/C: 96 and 144 % of control
dose: 140.0 mg/kg/injection, schedule: Q07DX Z (ip)
  T/C: 90 % of control [5 of 6 alive]
[1]
  T/C: 103 % of control [4 of 6 alive]
  survivor count: 3 of 6
dose: 160.0 mg/kg/injection, schedule: Q01DX001 (oral)
  T/C: 103 % of control
dose: 160.0 mg/kg/injection, schedule: Q01DX009 (oral)
  T/C: 107 % of control
[2]
  T/C: 116 % of control
  survivor count: 6 of 6
dose: 180.0 mg/kg/injection, schedule: Q01DX001 (ip)
  T/C: 108 % of control [7 of 10 alive]
dose: 180.0 mg/kg/injection, schedule: Q01DX Z (oral)
  T/C: 89 % of control
dose: 180.0 mg/kg/injection, schedule: Q03HX008 (ip)
  T/C: 143 % of control
dose: 180.0 mg/kg/injection, schedule: Q04DX003 (ip)
  T/C: 101 % of control [8 of 10 alive]
dose: 240.0 mg/kg/injection, schedule: Q01DX Z (oral)
  survivor count: 6 of 6
dose: 270.0 mg/kg/injection, schedule: Q01DX Z (oral)
  survivor count: 6 of 6
[3]
  T/C: 97 and 101 % of control
  survivor count: 0 of 6
dose: 280.0 mg/kg/injection, schedule: Q07DX Z (ip)
  survivor count: 2 of 6
dose: 320.0 mg/kg/injection, schedule: Q01DX001 (ip)
  survivor count: 0 of 6
dose: 320.0 mg/kg/injection, schedule: Q01DX001 (oral)
  T/C: 108 % of control
dose: 320.0 mg/kg/injection, schedule: Q01DX009 (oral)
  survivor count: 6 of 6
dose: 360.0 mg/kg/injection, schedule: Q01DX Z (oral)
  survivor count: 5 of 6
dose: 420.0 mg/kg/injection, schedule: Q01DX001 (ip)
  survivor count: 6 of 6
dose: 630.0 mg/kg/injection, schedule: Q01DX001 (ip)
  survivor count: 6 of 6
dose: 640.0 mg/kg/injection, schedule: Q01DX001 (ip)
  survivor count: 0 of 6
dose: 640.0 mg/kg/injection, schedule: Q01DX001 (oral)
  T/C: 101 % of control

Source: PubChem BioAssay AID248 (DTP/NCI, 2004)
